Reference: patent US11530132B2, “Composition comprising porous silica particles carrying a cell fate modulating factor” (LEMONEX INC., priority 2017, dated 2022)
Some results were stated once for a whole list of compounds, not compound by compound. At least one structure is not confirmed: it was looked up by name or label, or the drawing left a doubt.

What was measured:
[1] = test system: nerve cells or fibroblasts; test: Transfection rate of factors carried in DDV; format: cell-based; conditions: factor carried in DDV
[2] = test system: nerve cells or fibroblasts; test: Forward differentiation rate with factors carried in DDV; format: cell-based; conditions: factor carried in DDV
From the text: (§1) This process was repeated 3 times.
as §1

For `CC1=C2C[C@H]3[C@@H](CC=C4CC(=O)CC[C@@]43C)[C@@H]2CC[C@]12O[C@@H]1C[C@H](C)CN(CCNC(=O)CCCCCNC(=O)CCc3ccccc3)[C@H]1[C@H]2C` [Cyclopamine-KAAD], the Transfection rate [1] was 70-95% and the Forward differentiation rate [2] was 5-20%.
